Literature values in patent US20240009173A1, “Use of 5-HT3-Targeting Drugs for Treatment of Acute Kidney Injury” (priority 2020, published 2024).
At least one structure is not confirmed: it was looked up by name or label, or the drawing left a doubt.

How the values were obtained:
[1] = system: all ICU patients; conditions: literature and/or clinical trials; cited from earlier work
[2] = system: ICU patients with AKI; conditions: literature and/or clinical trials; cited from earlier work

In the case of COc1ccnc(C[S+]([O-])c2nc3ccc(OC(F)F)cc3[nH]2)c1OC (centres unmarked) [Pantoprazole], the “Reported for protecting effect in all ICU patients” value [1] is given as “N” and the “Reported for protecting effect in ICU patients with AKI” value [2] is given as “N”.
